Data published in paper doi:10.1101/260083.
No constants are given. Whether binding was seen depends on the method and setting. In cells and extracts the contact can be indirect. Some results given as binding are weak or reduced against the parent protein; the word gives no strength. Sequences can lack the tags named with a protein.

Amino acid sequences for entries named in this document (tags omitted). A change or cut given only in a name is not applied to a line headed by its entry. Residues count along the entry.
UniProt Q9BYB0, whole entry: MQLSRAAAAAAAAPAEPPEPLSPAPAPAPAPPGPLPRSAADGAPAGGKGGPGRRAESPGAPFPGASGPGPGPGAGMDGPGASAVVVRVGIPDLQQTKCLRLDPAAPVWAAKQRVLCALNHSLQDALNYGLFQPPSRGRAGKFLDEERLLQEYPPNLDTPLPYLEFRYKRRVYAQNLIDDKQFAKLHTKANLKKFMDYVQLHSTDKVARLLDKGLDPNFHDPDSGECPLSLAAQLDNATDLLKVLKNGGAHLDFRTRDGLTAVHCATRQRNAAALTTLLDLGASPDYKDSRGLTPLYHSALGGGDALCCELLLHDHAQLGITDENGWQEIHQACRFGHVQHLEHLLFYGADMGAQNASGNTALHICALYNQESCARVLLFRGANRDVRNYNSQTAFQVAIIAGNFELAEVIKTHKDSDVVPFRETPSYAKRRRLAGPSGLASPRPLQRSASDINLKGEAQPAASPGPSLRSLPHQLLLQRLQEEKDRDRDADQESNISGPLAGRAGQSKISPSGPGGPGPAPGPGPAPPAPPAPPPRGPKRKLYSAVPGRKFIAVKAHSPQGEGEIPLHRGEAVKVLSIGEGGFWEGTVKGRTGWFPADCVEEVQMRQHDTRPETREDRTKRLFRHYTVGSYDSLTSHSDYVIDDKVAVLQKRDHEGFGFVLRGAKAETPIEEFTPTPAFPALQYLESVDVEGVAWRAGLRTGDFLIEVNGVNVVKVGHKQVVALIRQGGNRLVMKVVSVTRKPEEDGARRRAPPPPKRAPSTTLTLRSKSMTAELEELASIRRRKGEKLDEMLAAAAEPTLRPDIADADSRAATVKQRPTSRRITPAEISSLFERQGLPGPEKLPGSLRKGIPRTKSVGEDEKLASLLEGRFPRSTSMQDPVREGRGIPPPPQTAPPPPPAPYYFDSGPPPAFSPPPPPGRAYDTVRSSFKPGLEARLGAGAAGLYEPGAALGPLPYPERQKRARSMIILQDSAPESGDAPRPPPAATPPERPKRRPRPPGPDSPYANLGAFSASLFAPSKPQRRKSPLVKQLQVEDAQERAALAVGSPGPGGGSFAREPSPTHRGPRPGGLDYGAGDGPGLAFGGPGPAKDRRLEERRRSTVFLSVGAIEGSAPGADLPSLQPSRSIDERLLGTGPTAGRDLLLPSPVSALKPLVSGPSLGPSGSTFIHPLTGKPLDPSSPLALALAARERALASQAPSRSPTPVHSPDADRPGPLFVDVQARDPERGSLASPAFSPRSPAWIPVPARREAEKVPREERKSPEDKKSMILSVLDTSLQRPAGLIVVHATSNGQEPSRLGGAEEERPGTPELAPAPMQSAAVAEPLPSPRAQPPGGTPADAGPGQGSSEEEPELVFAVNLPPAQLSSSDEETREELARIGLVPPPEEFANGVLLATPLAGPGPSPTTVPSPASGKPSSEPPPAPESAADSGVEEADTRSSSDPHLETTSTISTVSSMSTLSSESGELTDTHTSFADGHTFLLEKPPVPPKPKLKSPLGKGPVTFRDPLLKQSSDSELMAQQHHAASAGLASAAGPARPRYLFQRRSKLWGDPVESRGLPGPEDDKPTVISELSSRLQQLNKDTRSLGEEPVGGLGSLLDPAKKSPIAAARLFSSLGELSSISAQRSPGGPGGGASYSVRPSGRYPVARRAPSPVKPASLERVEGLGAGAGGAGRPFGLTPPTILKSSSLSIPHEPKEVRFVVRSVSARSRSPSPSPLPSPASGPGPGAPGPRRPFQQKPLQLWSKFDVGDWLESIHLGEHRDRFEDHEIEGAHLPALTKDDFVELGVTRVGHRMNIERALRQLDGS
UniProt Q8N2Q7, 46-863: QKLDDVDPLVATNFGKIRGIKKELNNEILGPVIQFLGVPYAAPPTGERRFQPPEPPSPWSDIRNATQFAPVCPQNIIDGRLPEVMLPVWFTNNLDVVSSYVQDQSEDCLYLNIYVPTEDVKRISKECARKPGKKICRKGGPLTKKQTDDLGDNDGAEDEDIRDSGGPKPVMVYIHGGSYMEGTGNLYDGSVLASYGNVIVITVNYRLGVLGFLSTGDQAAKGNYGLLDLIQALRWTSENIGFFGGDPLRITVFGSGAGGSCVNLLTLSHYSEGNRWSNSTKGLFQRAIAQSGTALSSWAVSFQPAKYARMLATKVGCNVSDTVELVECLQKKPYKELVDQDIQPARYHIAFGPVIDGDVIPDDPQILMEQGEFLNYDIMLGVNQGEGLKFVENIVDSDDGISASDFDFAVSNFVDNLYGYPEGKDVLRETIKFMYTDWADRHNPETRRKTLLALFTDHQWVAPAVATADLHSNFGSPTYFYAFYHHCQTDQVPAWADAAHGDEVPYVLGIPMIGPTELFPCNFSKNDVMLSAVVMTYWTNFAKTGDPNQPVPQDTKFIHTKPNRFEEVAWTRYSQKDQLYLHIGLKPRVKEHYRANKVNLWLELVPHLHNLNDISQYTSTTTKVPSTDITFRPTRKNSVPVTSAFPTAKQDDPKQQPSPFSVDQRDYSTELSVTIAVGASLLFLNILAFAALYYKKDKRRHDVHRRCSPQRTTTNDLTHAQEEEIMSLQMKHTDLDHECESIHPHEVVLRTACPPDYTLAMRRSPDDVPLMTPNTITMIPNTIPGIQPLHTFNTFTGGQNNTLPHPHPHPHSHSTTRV
UniProt Q8NFZ4, 15-835: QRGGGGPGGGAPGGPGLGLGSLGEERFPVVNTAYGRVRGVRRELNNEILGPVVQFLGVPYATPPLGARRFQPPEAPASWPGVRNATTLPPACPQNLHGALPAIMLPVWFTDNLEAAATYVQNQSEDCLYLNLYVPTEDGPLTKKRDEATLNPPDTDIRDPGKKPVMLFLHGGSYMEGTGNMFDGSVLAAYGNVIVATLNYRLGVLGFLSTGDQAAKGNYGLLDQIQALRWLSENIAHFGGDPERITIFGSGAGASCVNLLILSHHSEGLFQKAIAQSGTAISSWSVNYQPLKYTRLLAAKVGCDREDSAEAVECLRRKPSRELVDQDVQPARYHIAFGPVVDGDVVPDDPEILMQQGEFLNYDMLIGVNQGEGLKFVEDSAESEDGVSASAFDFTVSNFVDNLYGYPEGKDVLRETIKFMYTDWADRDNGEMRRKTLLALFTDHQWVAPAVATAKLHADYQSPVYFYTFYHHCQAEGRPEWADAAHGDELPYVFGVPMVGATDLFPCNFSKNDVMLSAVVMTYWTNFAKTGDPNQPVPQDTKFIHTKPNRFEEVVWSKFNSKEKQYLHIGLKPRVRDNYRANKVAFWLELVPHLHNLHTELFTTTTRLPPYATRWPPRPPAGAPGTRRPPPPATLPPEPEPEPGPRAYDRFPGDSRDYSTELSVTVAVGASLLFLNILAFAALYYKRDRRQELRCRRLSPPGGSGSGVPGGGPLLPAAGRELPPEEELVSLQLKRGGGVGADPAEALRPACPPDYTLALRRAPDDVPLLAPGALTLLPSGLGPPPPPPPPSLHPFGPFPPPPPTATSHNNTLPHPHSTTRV

B1: GFP-Gephyrin (protein, UniProt Q9NQX3 1-736)
chain: MATEGMILTNHDHQIRVGVLTVSDSCFRNLAEDRSGINLKDLVQDPSLLGGTISAYKIVPDEIEEIKETLIDWCDEKELNLILTTGGTGFAPRDVTPEATKEVIEREAPGMALAMLMGSLNVTPLGMLSRPVCGIRGKTLIINLPGSKKGSQECFQFILPALPHAIDLLRDAIVKVKEVHDELEDLPSPPPPLSPPPTTSPHKQTEDKGVQCEEEEEEKKDSGVASTEDSSSSHITAAAIAAKIPDSIISRGVQVLPRDTASLSTTPSESPRAQATSRLSTASCPTPKVQSRCSSKENILRASHSAVDITKVARRHRMSPFPLTSMDKAFITVLEMTPVLGTEIINYRDGMGRVLAQDVYAKDNLPPFPASVKDGYAVRAADGPGDRFIIGESQAGEQPTQTVMPGQVMRVTTGAPIPCGADAVVQVEDTELIRESDDGTEELEVRILVQARPGQDIRPIGHDIKRGECVLAKGTHMGPSEIGLLATVGVTEVEVNKFPVVAVMSTGNELLNPEDDLLPGKIRDSNRSTLLATIQEHGYPTINLGIVGDNPDDLLNALNEGISRADVIITSGGVSMGEKDYLKQVLDIDLHAQIHFGRVFMKPGLPTTFATLDIDGVRKIIFALPGNPVSAVVTCNLFVVPALRKMQGILDPRPTIIKARLSCDVKLDPRPEYHRCILTWHHQEPLPWAQSTGNQMSSRLMSMRSANGLLMLPPKTEQYVELHKGEVVDVMVIGRL

How the values were obtained:
[1] = biological target: T1, myc-CNTNAP3 (full-length human CNTNAP3) (human) (UniProt Q9BZ76); test: co-IP
T1 sequence: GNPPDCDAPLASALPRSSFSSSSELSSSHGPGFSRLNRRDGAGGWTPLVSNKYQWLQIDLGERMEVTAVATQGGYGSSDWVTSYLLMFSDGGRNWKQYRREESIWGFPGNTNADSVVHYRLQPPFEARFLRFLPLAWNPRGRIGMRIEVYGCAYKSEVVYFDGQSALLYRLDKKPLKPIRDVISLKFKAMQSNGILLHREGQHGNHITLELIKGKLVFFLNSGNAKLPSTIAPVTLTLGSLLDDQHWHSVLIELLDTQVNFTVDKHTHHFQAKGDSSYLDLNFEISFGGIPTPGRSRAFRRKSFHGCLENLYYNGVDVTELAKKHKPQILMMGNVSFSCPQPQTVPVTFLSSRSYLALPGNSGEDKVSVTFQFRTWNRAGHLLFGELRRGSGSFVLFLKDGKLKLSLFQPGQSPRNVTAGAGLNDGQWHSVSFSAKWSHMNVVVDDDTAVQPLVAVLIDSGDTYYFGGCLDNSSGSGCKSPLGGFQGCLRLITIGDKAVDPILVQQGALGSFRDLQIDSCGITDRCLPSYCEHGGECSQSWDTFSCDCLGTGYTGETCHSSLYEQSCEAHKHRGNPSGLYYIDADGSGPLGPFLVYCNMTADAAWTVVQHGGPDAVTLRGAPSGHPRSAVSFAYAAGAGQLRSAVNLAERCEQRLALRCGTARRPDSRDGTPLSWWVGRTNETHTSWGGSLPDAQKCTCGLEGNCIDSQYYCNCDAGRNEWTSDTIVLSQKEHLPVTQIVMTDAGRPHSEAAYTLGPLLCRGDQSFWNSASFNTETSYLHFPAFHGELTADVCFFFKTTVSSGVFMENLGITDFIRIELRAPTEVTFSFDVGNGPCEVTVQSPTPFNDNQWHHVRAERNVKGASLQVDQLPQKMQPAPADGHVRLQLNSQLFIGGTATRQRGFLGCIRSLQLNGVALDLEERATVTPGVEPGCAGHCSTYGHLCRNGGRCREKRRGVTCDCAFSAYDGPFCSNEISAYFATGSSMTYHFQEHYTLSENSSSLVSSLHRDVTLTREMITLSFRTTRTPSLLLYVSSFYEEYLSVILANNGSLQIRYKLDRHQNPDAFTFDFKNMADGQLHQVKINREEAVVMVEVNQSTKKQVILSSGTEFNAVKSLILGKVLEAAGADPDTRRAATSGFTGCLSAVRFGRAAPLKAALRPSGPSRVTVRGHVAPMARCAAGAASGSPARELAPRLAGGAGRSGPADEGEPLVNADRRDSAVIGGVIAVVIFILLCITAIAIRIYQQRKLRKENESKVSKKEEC

[2] = biological target: T2, myc-R1219X (CNTNAP3 R1219X) (human) (UniProt Q9BZ76); test: co-IP
T2 sequence: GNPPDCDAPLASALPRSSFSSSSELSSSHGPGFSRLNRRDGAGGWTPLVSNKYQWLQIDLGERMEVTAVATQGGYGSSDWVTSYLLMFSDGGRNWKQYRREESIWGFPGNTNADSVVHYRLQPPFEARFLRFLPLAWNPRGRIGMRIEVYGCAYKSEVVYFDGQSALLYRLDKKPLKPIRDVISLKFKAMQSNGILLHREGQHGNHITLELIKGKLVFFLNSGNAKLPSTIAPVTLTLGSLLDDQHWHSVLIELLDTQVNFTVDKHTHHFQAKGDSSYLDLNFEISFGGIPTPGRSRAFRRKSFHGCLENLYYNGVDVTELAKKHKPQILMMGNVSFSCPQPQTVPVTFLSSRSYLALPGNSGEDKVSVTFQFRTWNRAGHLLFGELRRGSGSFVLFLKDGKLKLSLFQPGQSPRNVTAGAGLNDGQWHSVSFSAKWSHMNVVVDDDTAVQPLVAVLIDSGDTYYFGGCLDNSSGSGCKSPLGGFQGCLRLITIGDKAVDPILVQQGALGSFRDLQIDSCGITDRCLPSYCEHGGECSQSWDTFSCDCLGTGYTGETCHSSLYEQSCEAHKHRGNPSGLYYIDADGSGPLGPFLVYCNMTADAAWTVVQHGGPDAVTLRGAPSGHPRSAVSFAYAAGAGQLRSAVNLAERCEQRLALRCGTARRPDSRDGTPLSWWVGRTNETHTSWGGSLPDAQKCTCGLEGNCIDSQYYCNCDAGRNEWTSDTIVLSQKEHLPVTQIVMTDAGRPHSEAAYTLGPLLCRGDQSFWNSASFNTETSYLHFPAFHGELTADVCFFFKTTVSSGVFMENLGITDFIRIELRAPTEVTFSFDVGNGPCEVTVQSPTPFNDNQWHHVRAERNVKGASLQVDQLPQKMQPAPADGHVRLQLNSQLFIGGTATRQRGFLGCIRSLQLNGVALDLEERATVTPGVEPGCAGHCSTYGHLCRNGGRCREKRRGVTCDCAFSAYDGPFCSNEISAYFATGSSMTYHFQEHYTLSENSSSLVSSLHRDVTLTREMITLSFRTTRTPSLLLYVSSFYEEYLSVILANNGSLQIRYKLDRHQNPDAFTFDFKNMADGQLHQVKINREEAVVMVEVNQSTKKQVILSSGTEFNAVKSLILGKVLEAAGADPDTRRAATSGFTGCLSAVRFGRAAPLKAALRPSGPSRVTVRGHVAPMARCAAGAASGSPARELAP

Row | Molecule | binding [1] | binding [2]
1 | SHANK3 (from UniProt Q9BYB0 1-1806) | no binding | –
2 | HA-NLGN1 (Neuroligin1) (from UniProt Q8N2Q7 46-863) | binds | –
3 | HA-NLGN2 (Neuroligin 2) (from UniProt Q8NFZ4 15-835) | binds | –
4 | B1 | binds | no binding
